No constants are given. Whether binding was seen depends on the method and setting. For part of these data: Binding seen in cells or lysates may run through a third protein. Some results given as binding are weak or reduced against the parent protein; the word gives no strength. Tags and fused reporters may be left off the sequences shown. Each block holds one molecule with its values, some of them ahead of it.
Experiments:
[1] = biological target: T1, L242R-6xHis (zebrafish Prkra L242R mutant) (zebrafish) (UniProt B0V3F8); assay: co-IP
T1 sequence: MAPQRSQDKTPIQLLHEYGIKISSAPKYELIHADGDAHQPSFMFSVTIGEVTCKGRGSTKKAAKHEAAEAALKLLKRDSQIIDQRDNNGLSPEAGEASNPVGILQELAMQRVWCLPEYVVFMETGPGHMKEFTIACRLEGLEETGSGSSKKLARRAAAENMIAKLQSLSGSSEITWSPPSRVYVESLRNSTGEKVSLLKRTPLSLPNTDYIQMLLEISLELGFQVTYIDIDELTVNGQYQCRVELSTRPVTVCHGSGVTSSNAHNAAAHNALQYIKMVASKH

By UniProt entry, the sequences of proteins in these tests, tags left out. Where a name states a change or a piece, a line headed by the entry shows the natural chain unless it says otherwise. Chains listed by the source or under a name are the forms on record and can include a tag or linker.
eIF2α (subunit of translation initiation factor eIF2) (Q7ZWD3, form named): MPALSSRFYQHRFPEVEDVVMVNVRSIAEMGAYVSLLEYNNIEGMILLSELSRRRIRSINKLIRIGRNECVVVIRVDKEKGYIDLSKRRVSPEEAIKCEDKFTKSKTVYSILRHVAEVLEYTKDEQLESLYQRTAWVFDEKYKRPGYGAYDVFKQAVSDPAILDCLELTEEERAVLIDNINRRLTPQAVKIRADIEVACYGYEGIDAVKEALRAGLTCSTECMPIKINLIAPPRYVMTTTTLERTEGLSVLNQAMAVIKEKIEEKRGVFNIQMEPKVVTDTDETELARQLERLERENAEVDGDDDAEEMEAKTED

[2] = biological target: Prkra overexpressed in zebrafish embryos as two differently tagged copies (6xMyc-Prkra and 6xHis-Prkra) (zebrafish) (UniProt B0V3F8); assay: co-IP
[3] = biological target: T1, L242R-6xHis (zebrafish Prkra L242R mutant) (zebrafish); assay: native gel or EMSA

- binding [1]: no binding
Molecule: eIF2α (subunit of translation initiation factor eIF2) (from UniProt Q7ZWD3 1-315)

- binding [2]: binds
B1: Prkra-6xHis (recombinant wild-type zebrafish Prkra) (natural protein, UniProt B0V3F8 1-282, looked up)
chain: MAPQRSQDKTPIQLLHEYGIKISSAPKYELIHADGDAHQPSFMFSVTIGEVTCKGRGSTKKAAKHEAAEAALKLLKRDSQIIDQRDNNGLSPEAGEASNPVGILQELAMQRVWCLPEYVVFMETGPGHMKEFTIACRLEGLEETGSGSSKKLARRAAAENMIAKLQSLSGSSEITWSPPSRVYVESLRNSTGEKVSLLKRTPLSLPNTDYIQMLLEISLELGFQVTYIDIDELTVNGQYQCLVELSTRPVTVCHGSGVTSSNAHNAAAHNALQYIKMVASKH

- binding [3]: no binding
B2: L242R-6xHis (zebrafish Prkra L242R mutant) (protein, UniProt B0V3F8 1-282)
chain: MAPQRSQDKTPIQLLHEYGIKISSAPKYELIHADGDAHQPSFMFSVTIGEVTCKGRGSTKKAAKHEAAEAALKLLKRDSQIIDQRDNNGLSPEAGEASNPVGILQELAMQRVWCLPEYVVFMETGPGHMKEFTIACRLEGLEETGSGSSKKLARRAAAENMIAKLQSLSGSSEITWSPPSRVYVESLRNSTGEKVSLLKRTPLSLPNTDYIQMLLEISLELGFQVTYIDIDELTVNGQYQCRVELSTRPVTVCHGSGVTSSNAHNAAAHNALQYIKMVASKH
